This passage reports binding results from patent publication US20160369010A1.

Sequences of proteins named here, by UniProt entry; tags and fusion partners are left off. Residues count along the entry.
UniProt Q8NBP7, residues 31-692: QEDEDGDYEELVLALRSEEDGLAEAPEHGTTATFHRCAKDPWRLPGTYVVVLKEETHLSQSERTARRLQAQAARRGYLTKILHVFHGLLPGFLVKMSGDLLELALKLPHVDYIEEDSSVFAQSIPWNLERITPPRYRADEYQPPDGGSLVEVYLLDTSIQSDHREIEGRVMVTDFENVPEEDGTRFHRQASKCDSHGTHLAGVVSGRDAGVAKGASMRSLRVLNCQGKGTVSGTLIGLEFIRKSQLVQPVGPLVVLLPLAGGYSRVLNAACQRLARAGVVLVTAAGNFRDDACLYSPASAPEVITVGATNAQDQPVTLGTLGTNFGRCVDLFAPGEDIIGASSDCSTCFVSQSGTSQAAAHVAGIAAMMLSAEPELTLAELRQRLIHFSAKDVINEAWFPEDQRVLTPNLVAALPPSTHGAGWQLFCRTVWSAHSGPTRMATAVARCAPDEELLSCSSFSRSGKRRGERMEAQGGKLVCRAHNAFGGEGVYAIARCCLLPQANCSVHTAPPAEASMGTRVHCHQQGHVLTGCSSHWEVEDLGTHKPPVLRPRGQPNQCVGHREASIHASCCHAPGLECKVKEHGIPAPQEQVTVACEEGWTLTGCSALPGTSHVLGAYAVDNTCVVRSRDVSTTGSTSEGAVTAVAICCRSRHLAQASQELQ

Results are given in words; binding and its absence hold for the method and conditions named. Some entries that bind do so weakly or less than the wild type.

In assay [1] the target is Recombinant human Avi_PCSK9_Flag_His (human) (UniProt Q8NBP7). As to the kind of experiment: binding ELISA on coated human PCSK9 (10 ug/mL), compound at 100 ug/mL, detection with cryptate labelled Fc specific anti human IgG.
Assay [2] shares this target. In words: ELISA on coated human PCSK9.

B1: PC9#1_DSB7_V19A (antibody, IgG1)
VH: QVQLVQSGAEVKKPGASVKVSCKASGYTFTSYYMHWVRQAPGQGLEWMGEISPFGGRTNYNEKFKSRVTMTRDTSTSTVYMELSSLRSEDTAVYYCARERPLYASDLWGQGTTVTVSS
VL: HGEGTFTSDLSKQMEEECARLFIEWLKNGGPSSGAPPPGCGGGGGSGGGGSGGGGSADIQMTQSPSSLSASVGDRVTITCRASQGISSALAWYQQKPGKAPKLLIYSASYRYTGVPSRFSGSGSGTDFTFTISSLQPEDIATYYCQQRYSLWRTFGQGTKLEIK
For the molecule B1, the binding result in assay [1] and in assay [2] was “binds” each time.
